Measured values taken from PMC8076051.
No constants are given. Whether binding was seen depends on the method and setting. Binding seen in cells or lysates may run through a third protein. Some binding calls cover weakened binding; strength is not graded here.

Amino acid sequences for entries named in this document (tags omitted).
UniProt P56693: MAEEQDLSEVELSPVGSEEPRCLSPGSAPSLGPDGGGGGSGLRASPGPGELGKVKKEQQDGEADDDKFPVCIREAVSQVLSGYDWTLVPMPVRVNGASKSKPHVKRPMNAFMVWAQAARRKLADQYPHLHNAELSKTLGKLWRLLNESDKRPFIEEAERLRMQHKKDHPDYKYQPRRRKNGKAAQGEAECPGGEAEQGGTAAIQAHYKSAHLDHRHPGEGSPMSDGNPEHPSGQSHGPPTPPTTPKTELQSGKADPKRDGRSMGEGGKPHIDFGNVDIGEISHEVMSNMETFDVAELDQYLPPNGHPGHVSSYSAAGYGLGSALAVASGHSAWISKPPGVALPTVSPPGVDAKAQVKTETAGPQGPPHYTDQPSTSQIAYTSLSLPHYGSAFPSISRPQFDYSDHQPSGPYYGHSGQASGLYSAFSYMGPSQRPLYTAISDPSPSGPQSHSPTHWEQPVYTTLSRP
UniProt P35222: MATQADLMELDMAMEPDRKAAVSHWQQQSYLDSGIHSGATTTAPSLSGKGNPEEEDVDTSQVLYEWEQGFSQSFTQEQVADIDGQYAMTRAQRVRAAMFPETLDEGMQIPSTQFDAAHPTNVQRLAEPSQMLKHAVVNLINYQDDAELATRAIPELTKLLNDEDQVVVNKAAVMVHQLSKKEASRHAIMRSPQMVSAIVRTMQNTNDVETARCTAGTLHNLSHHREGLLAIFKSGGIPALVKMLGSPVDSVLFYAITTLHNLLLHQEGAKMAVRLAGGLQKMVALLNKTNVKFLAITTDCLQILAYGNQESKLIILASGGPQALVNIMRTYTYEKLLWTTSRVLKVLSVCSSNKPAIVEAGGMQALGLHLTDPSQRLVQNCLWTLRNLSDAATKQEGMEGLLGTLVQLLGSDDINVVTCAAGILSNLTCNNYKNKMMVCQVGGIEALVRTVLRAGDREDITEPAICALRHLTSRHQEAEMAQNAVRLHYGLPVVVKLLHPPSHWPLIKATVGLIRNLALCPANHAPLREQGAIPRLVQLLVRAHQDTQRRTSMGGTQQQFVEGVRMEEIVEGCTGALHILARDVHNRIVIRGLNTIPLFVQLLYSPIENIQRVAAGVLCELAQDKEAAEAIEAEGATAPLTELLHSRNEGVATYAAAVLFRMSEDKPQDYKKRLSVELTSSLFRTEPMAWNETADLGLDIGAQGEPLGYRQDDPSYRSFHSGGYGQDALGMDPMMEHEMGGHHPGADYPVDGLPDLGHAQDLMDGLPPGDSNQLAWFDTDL

Assays:
[1] = target: HA-tagged SOX10 (UniProt P56693); assay: co-IP; flag-β-catenin and HA-SOX10 overexpressed in different ratios in HEK293T/17; lysate in IP buffer (50 mM Tris pH 8.0, 150 mM NaCl, 1 mM EDTA, 1% Triton X100, with Benzonase and 20 µM MG-132); anti-HA on Protein G Dynabeads, 2 h at 4 °C; western blot for β-catenin
[2] = target: recombinant SOX10 protein (UniProt P56693); assay: cross-linking; M010817 whole cell extract mixed with recombinant SOX10 at ratios 1/1, 1/5 and 1/10 after dialysis against PBS; cross-linked with DSS d0/d12 for 3 h at room temperature; SDS-PAGE, in-gel trypsin digestion, nLC Orbitrap MS (CovalX); only the target purified

binding [1]	binding [2]	Substance
binds	–	flag-tagged β-catenin (from UniProt P35222 1-781)
–	binds	β-catenin (from UniProt P35222 1-781)
